Data set [1] relates to T1, MG92-3 TnpA-like transposase (MG92-3-A) (metagenomic (uncultivated)).
T1 sequence (limits assumed): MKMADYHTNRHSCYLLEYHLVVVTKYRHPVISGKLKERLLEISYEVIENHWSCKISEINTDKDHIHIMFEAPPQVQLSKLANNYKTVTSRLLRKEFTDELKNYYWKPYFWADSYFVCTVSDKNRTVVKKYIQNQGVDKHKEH
The data set can be described thus: enzyme reaction in vitro. Particulars: 5 mM MgCl2, 37 C, protein translated in vitro, protein details: C-terminal HA and His tags, PURExpress IVTT, single-stranded DNA.

Data set [2] has as its system T2, MG92-4 TnpA-like transposase (MG92-4-A) (metagenomic (uncultivated)).
T2 sequence (limits assumed): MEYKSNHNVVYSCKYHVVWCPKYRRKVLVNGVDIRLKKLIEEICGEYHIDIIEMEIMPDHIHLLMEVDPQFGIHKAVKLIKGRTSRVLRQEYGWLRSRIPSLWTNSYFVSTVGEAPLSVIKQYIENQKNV
The data set can be described thus: enzyme reaction in vitro. As to conditions: RE cleavage and insertion detected by NGS only, weak signal; 5 mM MgCl2, 37 C, 1 h; protein translated in vitro; protein details: C-terminal HA and His tags, PURExpress IVTT; single-stranded DNA.

Tags and fusion partners may be left off the protein sequences shown. For some of these results: The exact form of at least one protein or probe is not confirmed.

As to AATGAC [MG92-3 target insertion motif], in data set [1] (insertion motif identified from target/cargo junction), the “activity on this sequence” value was “active”.
As to “CCCAAACCTATACGCTCGGGGACACCGTGTAAGACCTCGCTGGTGCAGGCGGTGGTGGCTGAACCGAGAATCCCCCGGCTTTAGCCGTGGGGAGTGTCAA [MG92-4 RE (transposon right end)]”, the “activity on this sequence” value in data set [2] is “active”.
With “GTTTGCGCTGTATCTGTGGTCAGGTATCCACTCCTACCTAAAGTAGCAGGCATGAACGAAAGTTTATGCGGAGTTTGGAAGCCCCGTCTATATTCGCGAAAGCGGATTAGGCGGGGAGGGTTCAC [MG92-3 RE boundary (SEQ ID NO: 476)]”, the “activity on this sequence” value in data set [1] (RE cleavage and insertion by Sanger, 1 h) was “active”.
For the sequence “TGAAAACAAACATTTTACCAAGGCCCGCAGGCTCCGTCTATAGCGACAAGCGCTAACTTTGGCTACGCTTGTCGTTTAGGCGGGGTTAGT [MG92-3 LE boundary (SEQ ID NO: 475)]”, in data set [1] (transposition of LE-Kan-RE ssDNA cargo, LE junction by Sanger and NGS, 20 mM HEPES pH 7.5, 160 mM NaCl, 1 h), the “activity on this sequence” value is “active”.

For the origin of these results see US20240327871.
